# Experimental data reported in the supplement of paper PMC8728848.
# The list shows a part of the results.
# B1: GS7807F-bth-514-18-514 (Bacteroides thetaiotaomicron) (protein)
# chain: AGSCTGNFEEYNTNQFQIHEADPSTLMKSMIETIVNIQQNDSQMMDQMVGQLGGYLTCANVWSGTNFGTFNQSDAWNAGPWNTNFEKIYGNFFQIQEATNESGHYYAFARMIRAITMLRVADCYGPMPYSQVKKGNFYVAYDTEEQVYKNIMEDFASAANVLYNYYKDTNGNAPLASNDPVFSGNYANWARLANSMRLRVAIRISTAYPEMAKENAEAAASHEAGLIEANNDNAMMDCGSQTNPYQLAAVSWGDLRVNANIVDYMNGYGDPRMSKYFNHSTFTGHTQEYVGMRSGEDGFAKSDVAGYSIPAITGTSKLLVFCAAETAFLRAEGKLKNWSVGNKSAKEYYEEGIKLSMEQYGTTMPDNYLTNTEKPTVSHNNDPRGHAYTISNTVAVAWNDNNEEENLQRIITQKWIANYPLGLEAWAEYRRTGYPELYPCIDNLSPSGVDSKRGMRRLRFPYTEVQNNHSNYQQGVSYLKNGGPDNEATDLSWGKTN
# Assays:
# Experiment in all cases: glycan array binding signal (z-score within array); higher = stronger binding
# Details in all cases: glycan notation: IUPAC condensed, linker removed
# [1] = molecular target: Gal(b1-4)GlcNAc(b1-3)Gal(b1-4)GlcNAc(b1-3)Gal(b1-4)GlcNAc(b1-3)Gal(b1-4)GlcNAc(b1-2)Man(a1-3)[Gal(b1-4)GlcNAc(b1-3)Gal(b1-4)GlcNAc(b1-3)Gal(b1-4)GlcNAc(b1-3)Gal(b1-4)GlcNAc(b1-2)Man(a1-6)]Man(b1-4)GlcNAc(b1-4)[Fuc(a1-6)]GlcNAc
# Procedure, shortened: (§1)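 Glycan array data came from 3228 arrays in the Consortium for Functional Glycomics database, and only arrays with an available protein sequence were kept. Glycan names were put into IUPAC-condensed notation, and columns mapping to the same glycan were averaged. The binding signal is a within-array Z-score, averaged across arrays of one protein sequence run at different concentrations or buffers and across linkers. A negative Z-score can be read as non-binding.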
# [2] = molecular target: Gal(b1-4)GlcNAc(b1-3)Gal(b1-4)GlcNAc(b1-3)Gal(b1-4)GlcNAc(b1-3)Gal(b1-4)GlcNAc(b1-2)[Gal(b1-4)GlcNAc(b1-3)Gal(b1-4)GlcNAc(b1-3)Gal(b1-4)GlcNAc(b1-3)Gal(b1-4)GlcNAc(b1-6)]Man(a1-6)[Gal(b1-4)GlcNAc(b1-3)Gal(b1-4)GlcNAc(b1-3)Gal(b1-4)GlcNAc(b1-3)Gal(b1-4)GlcNAc(b1-2)Man(a1-3)]Man(b1-4)GlcNAc(b1-4)[Fuc(a1-6)]GlcNAc
# Procedure, shortened: as §1
# [3] = molecular target: Gal(b1-4)GlcNAc(b1-3)Gal(b1-4)GlcNAc(b1-3)Gal(b1-4)GlcNAc(b1-3)Gal(b1-4)GlcNAc(b1-3)Gal(b1-4)GlcNAc(b1-2)Man(a1-3)[Gal(b1-4)GlcNAc(b1-3)Gal(b1-4)GlcNAc(b1-3)Gal(b1-4)GlcNAc(b1-3)Gal(b1-4)GlcNAc(b1-3)Gal(b1-4)GlcNAc(b1-2)Man(a1-6)]Man(b1-4)GlcNAc(b1-4)GlcNAc
# Procedure, shortened: as §1
# [4] = molecular target: Gal(b1-4)GlcNAc(b1-3)Gal(b1-4)GlcNAc(b1-3)Gal(b1-4)GlcNAc(b1-3)Gal(b1-4)GlcNAc(b1-3)Gal(b1-4)GlcNAc(b1-2)Man(a1-3)[Gal(b1-4)GlcNAc(b1-3)Gal(b1-4)GlcNAc(b1-3)Gal(b1-4)GlcNAc(b1-3)Gal(b1-4)GlcNAc(b1-3)Gal(b1-4)GlcNAc(b1-2)Man(a1-6)]Man(b1-4)GlcNAc(b1-4)[Fuc(a1-6)]GlcNAc
# Procedure, shortened: as §1
# [5] = molecular target: Gal(b1-4)GlcNAc(b1-3)Gal(b1-4)GlcNAc(b1-3)Gal(b1-4)GlcNAc(b1-3)Gal(b1-4)GlcNAc(b1-3)Gal(b1-4)GlcNAc(b1-2)[Gal(b1-4)GlcNAc(b1-3)Gal(b1-4)GlcNAc(b1-3)Gal(b1-4)GlcNAc(b1-3)Gal(b1-4)GlcNAc(b1-3)Gal(b1-4)GlcNAc(b1-6)]Man(a1-6)[Gal(b1-4)GlcNAc(b1-3)Gal(b1-4)GlcNAc(b1-3)Gal(b1-4)GlcNAc(b1-3)Gal(b1-4)GlcNAc(b1-3)Gal(b1-4)GlcNAc(b1-2)Man(a1-3)]Man(b1-4)GlcNAc(b1-4)[Fuc(a1-6)]GlcNAc
# Procedure, shortened: as §1
# [6] = molecular target: Gal(b1-4)GlcNAc(b1-3)Gal(b1-4)GlcNAc(b1-3)Gal(b1-4)GlcNAc(b1-3)Gal(b1-4)GlcNAc(b1-3)Gal(b1-4)GlcNAc(b1-3)Gal(b1-4)GlcNAc(b1-2)Man(a1-3)[Gal(b1-4)GlcNAc(b1-3)Gal(b1-4)GlcNAc(b1-3)Gal(b1-4)GlcNAc(b1-3)Gal(b1-4)GlcNAc(b1-3)Gal(b1-4)GlcNAc(b1-3)Gal(b1-4)GlcNAc(b1-2)Man(a1-6)]Man(b1-4)GlcNAc(b1-4)GlcNAc
# Procedure, shortened: as §1
# [7] = molecular target: Gal(b1-4)GlcNAc(b1-3)Gal(b1-4)GlcNAc(b1-3)GalNAc
# Procedure, shortened: as §1
# [8] = molecular target: Gal(b1-4)GlcNAc(b1-3)Gal(b1-4)GlcNAc(b1-3)[Gal(b1-4)GlcNAc(b1-3)Gal(b1-4)GlcNAc(b1-6)]GalNAc
# Procedure, shortened: as §1
# [9] = molecular target: Gal(b1-4)GlcNAc(b1-3)Gal(b1-4)GlcNAc(b1-6)[Gal(b1-3)]GalNAc
# Procedure, shortened: as §1
# [10] = molecular target: Gal(b1-4)GlcNAc(b1-3)Gal(b1-4)[Fuc(a1-3)]GlcNAc(b1-3)Gal(b1-4)[Fuc(a1-3)]GlcNAc
# Procedure, shortened: as §1
# [11] = molecular target: Gal(b1-4)GlcNAc(b1-3)GalNAc
# Procedure, shortened: as §1
# [12] = molecular target: Gal(b1-4)GlcNAc(b1-3)[Fuc(a1-3)GlcNAc(b1-6)]Gal(b1-4)Glc
# Procedure, shortened: as §1
# [13] = molecular target: Gal(b1-4)GlcNAc(b1-3)[Gal(b1-4)GlcNAc(b1-6)]Gal(b1-4)GlcNAc
# Procedure, shortened: as §1
# [14] = molecular target: Gal(b1-4)GlcNAc(b1-3)[GlcNAc(b1-6)]Gal(b1-4)GlcNAc
# Procedure, shortened: as §1
# [15] = molecular target: Gal(b1-4)GlcNAc(b1-6)Gal(b1-4)GlcNAc
# Procedure, shortened: as §1
# [16] = molecular target: Gal(b1-4)GlcNAc(b1-6)GalNAc
# Procedure, shortened: as §1
# [17] = molecular target: Gal(b1-4)GlcNAc(b1-6)[Gal(b1-3)]GalNAc
# Procedure, shortened: as §1
# [18] = molecular target: Gal(b1-4)GlcNAc(b1-6)[Gal(b1-4)GlcNAc(b1-3)]GalNAc
# Procedure, shortened: as §1
# Gal(b1-4)GlcNAc6P = molecular target: Gal(b1-4)GlcNAc6P
# Procedure, shortened: as §1
# Gal(b1-6)Gal = molecular target: Gal(b1-6)Gal
# Procedure, shortened: as §1
# Gal3S(b1-3)GalNAc = molecular target: Gal3S(b1-3)GalNAc
# Procedure, shortened: as §1
# Gal3S(b1-3)GlcNAc = molecular target: Gal3S(b1-3)GlcNAc
# Procedure, shortened: as §1
# [19] = molecular target: Gal3S(b1-3)[Fuc(a1-4)]GlcNAc
# Procedure, shortened: as §1
# Gal3S(b1-4)Glc = molecular target: Gal3S(b1-4)Glc
# Procedure, shortened: as §1
# Gal3S(b1-4)Glc6S = molecular target: Gal3S(b1-4)Glc6S
# Procedure, shortened: as §1
# Gal3S(b1-4)GlcNAc = molecular target: Gal3S(b1-4)GlcNAc
# Procedure, shortened: as §1
# [20] = molecular target: Gal3S(b1-4)[Fuc(a1-3)]Glc6S
# Procedure, shortened: as §1
# [21] = molecular target: Gal3S(b1-4)[Fuc(a1-3)]GlcNAc
# Procedure, shortened: as §1
# [22] = molecular target: Gal3S(b1-4)[Fuc(a1-3)]GlcNAc6S
# Procedure, shortened: as §1
# Gal3S4S(b1-4)GlcNAc = molecular target: Gal3S4S(b1-4)GlcNAc
# Procedure, shortened: as §1
# Gal3S6S(b1-4)GlcNAc = molecular target: Gal3S6S(b1-4)GlcNAc
# Procedure, shortened: as §1
# Gal3S6S(b1-4)GlcNAc6S = molecular target: Gal3S6S(b1-4)GlcNAc6S
# Procedure, shortened: as §1
# Gal4S(b1-4)GlcNAc = molecular target: Gal4S(b1-4)GlcNAc
# Procedure, shortened: as §1
# Gal4S6S(b1-4)GlcNAc = molecular target: Gal4S6S(b1-4)GlcNAc
# Procedure, shortened: as §1
# Gal6P(b1-4)GlcNAc = molecular target: Gal6P(b1-4)GlcNAc
# Procedure, shortened: as §1
# Gal6S(b1-3)GlcNAc = molecular target: Gal6S(b1-3)GlcNAc
# Procedure, shortened: as §1
# Gal6S(b1-3)GlcNAc6S = molecular target: Gal6S(b1-3)GlcNAc6S
# Procedure, shortened: as §1
# Gal6S(b1-4)Glc = molecular target: Gal6S(b1-4)Glc
# Procedure, shortened: as §1
binder,measurement,setting,value
B1,glycan array binding signal (z-score),[1],0.046
same,glycan array binding signal (z-score),[2],2.03
same,glycan array binding signal (z-score),[3],4.26
same,glycan array binding signal (z-score),[4],2.27
same,glycan array binding signal (z-score),[5],1.76
same,glycan array binding signal (z-score),[6],3.26
same,glycan array binding signal (z-score),[7],2.5
same,glycan array binding signal (z-score),[8],3.96
same,glycan array binding signal (z-score),[9],1.15
same,glycan array binding signal (z-score),[10],0.091
same,glycan array binding signal (z-score),[11],-0.61
same,glycan array binding signal (z-score),[12],1.53
same,glycan array binding signal (z-score),[13],0.003
same,glycan array binding signal (z-score),[14],0.49
same,glycan array binding signal (z-score),[15],1.94
same,glycan array binding signal (z-score),[16],-0.041
same,glycan array binding signal (z-score),[17],1.34
same,glycan array binding signal (z-score),[18],0.25
same,glycan array binding signal (z-score),Gal(b1-4)GlcNAc6P,0.499
same,glycan array binding signal (z-score),Gal(b1-6)Gal,1.37
same,glycan array binding signal (z-score),Gal3S(b1-3)GalNAc,-0.485
same,glycan array binding signal (z-score),Gal3S(b1-3)GlcNAc,-0.663
same,glycan array binding signal (z-score),[19],-0.143
same,glycan array binding signal (z-score),Gal3S(b1-4)Glc,0.164
same,glycan array binding signal (z-score),Gal3S(b1-4)Glc6S,-0.587
same,glycan array binding signal (z-score),Gal3S(b1-4)GlcNAc,-0.675
same,glycan array binding signal (z-score),[20],3.48
same,glycan array binding signal (z-score),[21],-0.367
same,glycan array binding signal (z-score),[22],0.016
same,glycan array binding signal (z-score),Gal3S4S(b1-4)GlcNAc,-0.686
same,glycan array binding signal (z-score),Gal3S6S(b1-4)GlcNAc,-0.702
same,glycan array binding signal (z-score),Gal3S6S(b1-4)GlcNAc6S,-0.25
same,glycan array binding signal (z-score),Gal4S(b1-4)GlcNAc,-0.819
same,glycan array binding signal (z-score),Gal4S6S(b1-4)GlcNAc,-0.896
same,glycan array binding signal (z-score),Gal6P(b1-4)GlcNAc,-0.69
same,glycan array binding signal (z-score),Gal6S(b1-3)GlcNAc,1.38
same,glycan array binding signal (z-score),Gal6S(b1-3)GlcNAc6S,-0.844
same,glycan array binding signal (z-score),Gal6S(b1-4)Glc,0.199

# No new results follow: an excerpt of the list.
binder,measurement,setting,value
B1,glycan array binding signal (z-score),[8],3.96
same,glycan array binding signal (z-score),[9],1.15
